Source: PubChem BioAssay AID504834 (National Center for Advancing Translational Sciences (NCATS), 2011)
Among all 320,000 compounds or so, about 22,000 (6.9%) were called active. The inconclusive results got no clear call from the source; some entries with a clear call stand among them for comparison. The call rests on the fitted dose curve; in most records, active means well fitted inhibition curve with a large enough effect; inconclusive means small, poorly fitted or top-dose-only effect, or another doubt; inactive means no such curve, though single readings can be large or run the other way. Potencies of inconclusive entries are doubtful fits and often do not repeat.

Assay: Primary qHTS for delayed death inhibitors of the malarial parasite plastid, 96 hour incubation
Conditions: P. falciparum luciferase reporter growth; series mostly up to 28.7 µM; activity change, negative = inhibition: at the top concentration
Method in brief: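 96 h incubation, 37 C, 5% CO2, of luciferase-reporter P. falciparum-infected RBCs (2% hematocrit, 0.05% parasitemia final) with test compounds; endpoint luminescence.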
On the % scale 0 is the no-effect control and ±100 the full control effect; potency means the concentration at half of the fitted maximal effect.

SMILES | activity change, negative = inhibition | Potency
CC1CC(=O)Nc2ccccc2N1C(=O)COc1cc(Cl)ccc1Cl (centres undefined) | inactive: -25.1% | –
NS(=O)(=O)c1ccc(N=Nc2c(O)[nH]c3ccc(Br)cc23)cc1 | – | inconclusive: 16.5 µM [inhibitor, single point]
CC(C)=CC(=O)OCC(=O)Nc1cc(C)cc(C)c1 | inactive: -17.5% | –
CSCCCN1CCCC(CO)(Cc2ccccc2F)C1 (centres undefined) | – | inconclusive: 14.7 µM [inhibitor, single point]
Cc1ccc(C(=O)Nc2ccc(S(=O)(=O)N3CCOCC3)cc2)cc1 | – | inconclusive: 18.5 µM [inhibitor, single point]
COC(=O)c1ccc(C2CC(=O)Nc3cc(OC)c(OC)c(OC)c32)cc1 (centres undefined) | inactive: -29.5% | –
CC(=O)Nc1ccc(/C=C/c2ccc3cccc([N+](=O)[O-])c3n2)cc1 | – | inconclusive: 18.5 µM [inhibitor, single point]
COc1ccc(S(=O)(=O)N2CCSCC2)cc1 | – | inconclusive: 18.5 µM [inhibitor, single point]
CCOC(=O)C1CCN(C(=O)CCc2ccccc2)CC1 | inactive: 0.679% | –
COc1ccc(-n2ccn3c(CCC(=O)N4CCN(c5cccc(C)c5C)CC4)nnc3c2=O)cc1 | – | inconclusive: 0.657 µM [inhibitor, full curve, poor fit]
CN1CCN(c2ccc(NC(=O)c3ccc(-c4ccc(Br)cc4)o3)cc2)CC1 | inactive: 8.38% | –
CCCCCn1cnc2c(sc3nc4c(cc32)CSC(C)(C)C4)c1=O | inactive: 160% | –
CCOc1ccc(N2C(=O)/C(=C\c3cccs3)C(=O)NC2=S)cc1 | inactive: 12.2% | –
COc1cc2c(cc1OC)CN(C(=O)c1ccc(S(=O)(=O)N(C)c3ccccc3)cc1)CC2 | – | inconclusive: 6.57 µM [inhibitor, partial curve]
Cc1ccc(-n2ncc3c2CC(C)(C)CC3NC(=O)CCc2cnn(C)c2)cc1 (centres undefined) | – | inconclusive: 20.8 µM [inhibitor, partial curve, poor fit]
Cc1ccc(-c2nc3c(c(=O)c4ccccc4n3C)c(=O)n2Cc2ccco2)cc1 | – | inconclusive: 4.65 µM [inhibitor, partial curve]
OCC[C@H]1C[C@H](O)[C@@H](O)[C@]2(CCc3ccccc3CO2)O1 | inactive: 26% | –
CN(C)CCCN(C(=O)c1ccc2c(c1)OCCO2)c1nc2cc3c(cc2s1)OCO3 | – | inconclusive: 10.4 µM [inhibitor, single point]
S=C(NCCc1ccccc1)NCc1cccs1 | inactive: 27.9% | –
CCN1CCN(c2nc(-c3ccccc3Cl)nc3ccccc23)CC1 | – | inconclusive: 11.7 µM [inhibitor, single point]
CCOC(=O)N1CCN(c2cc(=O)n(C3CCCCC3)c(=O)[nH]2)CC1 | – | inconclusive: 18.5 µM [inhibitor, single point]
Oc1ccccc1Cc1c(O)ccc2ccccc12 | inactive: -11.5% | –
COc1ccc(Cc2nnc(SCC(=O)NCCc3ccccc3)o2)cc1 | – | inconclusive: 18.5 µM [inhibitor, single point]

Some of these compounds in order of molar mass, high to low:
SMILES | activity change, negative = inhibition | Potency
COc1ccc(-n2ccn3c(CCC(=O)N4CCN(c5cccc(C)c5C)CC4)nnc3c2=O)cc1 | – | inconclusive: 0.657 µM [inhibitor, full curve, poor fit]
NS(=O)(=O)c1ccc(N=Nc2c(O)[nH]c3ccc(Br)cc23)cc1 | – | inconclusive: 16.5 µM [inhibitor, single point]
S=C(NCCc1ccccc1)NCc1cccs1 | inactive: 27.9% | –

The list continues.

SMILES | activity change, negative = inhibition | Potency
Cc1ccc(S(=O)(=O)Nc2nc(CN3CCOCC3)nc3sc(C)c(C)c23)cc1 | inactive: 1.88% | –
CN(C)C(=O)CCc1nc(-c2ccc(C(C)(C)C)cc2)no1 | inactive: 21.9% | –
C=CCN(c1ccccc1)S(=O)(=O)c1cc(C(=O)NC2=NCCS2)ccc1Cl | – | inconclusive: 11.7 µM [inhibitor, single point]
O=C(Cc1ccc(F)cc1)N1CCN(c2ccc([N+](=O)[O-])cc2)CC1 | – | inconclusive: 14.7 µM [inhibitor, single point]
COC(=O)CC(NC(=S)NC(=O)c1ccccc1)c1ccc(Br)cc1 (centres undefined) | – | inconclusive: 8.28 µM [inhibitor, single point]
COCC(C)n1c(SC(C)C(=O)NC2CCCCC2C)nc2ccccc2c1=O (centres undefined) | – | inconclusive: 2.94 µM [inhibitor, partial curve, poor fit]
CCOc1ccc(NC(=O)C2CCCN(S(=O)(=O)c3ccc(-n4cnnn4)cc3)C2)cc1 (centres undefined) | – | inconclusive: 9.28 µM [inhibitor, partial curve, poor fit]
CC(OC(=O)c1ccc(-n2cnnn2)cc1)C(=O)N(C)c1ccccc1 (centres undefined) | – | inconclusive: 18.5 µM [inhibitor, single point]
COc1ccc([C@H]2CC(=O)C=C(c3cc(F)ccc3F)C2)cc1OC | – | inconclusive: 6.57 µM [inhibitor, partial curve]
COc1cc(CNc2ccc(CNc3ncn[nH]3)cc2)ccc1OCC(=O)NC(C)(C)C | – | inconclusive: 8.28 µM [inhibitor, partial curve, poor fit]
CC(C)CCNC(=O)NC(=O)COc1ccccc1C#N | inactive: 5% | –
CCn1cnc2c(Nc3cc(F)cc(F)c3)nc(C#N)nc21 | – | active: 0.294 µM
COc1ccc(C2=NS(=O)(=O)N(C)C(C(=O)NC(C)c3ccccc3)=C2)cc1 (centres undefined) | inactive: 24.1% | –
O=C(CSc1nc2ccccc2s1)Nc1cc(S(=O)(=O)N2CCOCC2)ccc1Cl | – | inconclusive: 11.7 µM [inhibitor, single point]
CN(Cc1ccc(F)cc1)C(=O)CNC(=O)c1ccc2c(c1)OCO2 | – | inconclusive: 16.5 µM [inhibitor, single point]
Cc1ccc(C(=O)N[C@H](C(=O)Nc2ccc(F)cc2)C(C)C)cc1 | – | inconclusive: 13.1 µM [inhibitor, single point]
COc1ccc(N=c2oc3c(OC)cccc3cc2C(=O)NCc2ccco2)c(OC)c1 | inactive: -8.55% | –
CCN1CCCC1CNCc1cccc(OC)c1OCc1ccccc1F (centres undefined) | – | inconclusive: 18.5 µM [inhibitor, single point]
O=C1N/C(=N\N=C\c2cccs2)SC1Cc1ccc(Cl)c(Cl)c1 (centres undefined) | – | inconclusive: 10.4 µM [inhibitor, single point]
O=C(CSc1nnc(COc2ccccc2)o1)Nc1ccc(F)cc1 | inactive: 9.07% | –
CCN(CC1CCCO1)C(=O)C1CCN(C2CCN(Cc3ccccc3C)CC2)CC1 (centres undefined) | – | inconclusive: 2.94 µM [inhibitor, full curve, poor fit]
CCCCCn1c(=O)[nH]c2cc(C(=O)NCCN(CC)CC)ccc2c1=O | – | inconclusive: 8.28 µM [inhibitor, partial curve, poor fit]
CC(C)c1cccc(C(C)C)c1OCCn1ccnc1 | inactive: -26.4% | –

SMILES | activity change, negative = inhibition | Potency
O=C(c1ccco1)N1CCN(c2nc(C3CC3)nc3sc4c(c23)CCCC4)CC1 | inactive: -20.8% | –
CCOC(=O)N1CCN(C(=O)c2cccc(N3C(=O)NC4CC3(C)Oc3ccc(Cl)cc34)c2)CC1 (centres undefined) | – | inconclusive: 18.5 µM [inhibitor, single point]
Cc1ccccc1C(=O)Nc1ccc(Br)c(C)n1 | – | inconclusive: 8.28 µM [inhibitor, partial curve]
CCC(=O)Nc1ccc(NC(=O)CSc2nnnn2C2CCCC2)cc1C | – | inconclusive: 0.329 µM [inhibitor, full curve]
COc1ccccc1CNC(=O)c1cn(C)c(=O)c2cc(OC)c(OC)cc12 | – | inconclusive: 18.5 µM [inhibitor, single point]
CC(=O)Nc1ccc(NC(=O)COc2ccc(-c3ccccc3)cc2)cc1 | inactive: -13.8% | –
Cc1cccc(-c2noc(CN(C(=O)/C=C/c3ccccc3Cl)C(C)C)n2)c1 | inactive: -2.81% | –
CC(=O)c1ccc(N2CCN(CC(O)c3ccccc3)CC2)cc1 (centres undefined) | inactive: 7.18% | –
O=C(Cn1c(=O)[nH]c2ccccc2c1=O)N1CCN(c2cccc(Cl)c2)CC1 | – | inconclusive: 18.5 µM [inhibitor, single point]
CC1CCCN(CC(=O)N2CCCc3ccccc32)C1 (centres undefined) | – | inconclusive: 13.1 µM [inhibitor, single point]
Cc1nn(-c2ccccn2)c2nc(-c3cccs3)cc(C(=O)N3CCOCC3)c12 | – | inconclusive: 14.7 µM [inhibitor, single point]
CCSc1nnc(NC(=O)C(C(F)(F)F)C(F)(F)F)s1 | – | inconclusive: 4.15 µM [inhibitor, partial curve, poor fit]
C#Cc1ccc([C@H]2C=C(C(=O)O)O[C@@H](OCc3ccc(CO)cc3)C2)cc1 | inactive: 0% | –
O=C(Cc1cccc(NC(=O)C2CCN(C(=O)C3CC3)CC2)c1)Nc1cccc(C(=O)N2CCCC2)c1 | – | inconclusive: 0.0522 µM [inhibitor, full curve, poor fit]
CC1=CC2=NC(=O)/C(=C\c3cc(C)n(-c4ccccc4F)c3C)C(=N)N2O1 | – | inconclusive: 18.5 µM [inhibitor, single point]
CC(c1ccccc1)n1c(S(=O)(=O)O)nc2ccccc21 (centres undefined) | – | inconclusive: 13.1 µM [inhibitor, partial curve]
Cc1cccc(S(=O)(=O)Nc2ccc(-c3cn4ccccc4n3)cc2)c1 | – | inconclusive: 10.4 µM [inhibitor, single point]
COC(=O)c1ccccc1NC(=O)NCc1c(C)nn(C)c1C | – | inconclusive: 18.5 µM [inhibitor, single point]
COc1cc(/C=C2\OC(=O)c3c(OC)cccc32)ccc1O | – | inconclusive: 2.33 µM [inhibitor, single point]
CCOC(=O)c1ccc(NC2c3ncccc3C(=O)N2Cc2ccc(F)cc2)cc1 (centres undefined) | – | inconclusive: 14.7 µM [inhibitor, partial curve, poor fit]
NC(CO)(CO)COCc1ccccc1 | inactive: 32.6% | –
COC(=O)c1ccc(CSc2nc(C)nc3c2c(=O)n(C)c(=O)n3C)o1 | – | inconclusive: 5.22 µM [inhibitor, partial curve, poor fit]
CS(=O)(=O)Nc1ccc(C(=O)N2CC(=O)Nc3ccccc32)cc1 | – | inconclusive: 10.4 µM [inhibitor, single point]
